Among the data in publication PMC5827204 are binding values, retold here.

Chains of the proteins cited; added tags and fusions are not shown.
UniProt P41047: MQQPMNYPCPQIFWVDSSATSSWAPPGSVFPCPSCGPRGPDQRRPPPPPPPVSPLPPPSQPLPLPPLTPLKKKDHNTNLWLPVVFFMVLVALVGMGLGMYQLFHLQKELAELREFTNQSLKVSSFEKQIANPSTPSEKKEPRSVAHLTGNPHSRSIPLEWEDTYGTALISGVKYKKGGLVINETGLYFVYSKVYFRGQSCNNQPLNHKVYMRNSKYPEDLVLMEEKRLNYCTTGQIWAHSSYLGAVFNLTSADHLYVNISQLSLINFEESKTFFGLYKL
UniProt P09382: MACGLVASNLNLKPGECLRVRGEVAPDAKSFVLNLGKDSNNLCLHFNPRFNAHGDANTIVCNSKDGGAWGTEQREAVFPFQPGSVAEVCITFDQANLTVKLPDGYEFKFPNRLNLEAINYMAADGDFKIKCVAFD

Results are given in words; binding and its absence hold for the method and conditions named. In cells and extracts the contact can be indirect. Some entries that bind do so weakly or less than the wild type.

The target of the experiment is Fas ligand (mouse (endogenous in CD8+ T cells from spleen)) (UniProt P41047). In words: co-IP; CD8+ T cells from mouse spleen incubated with anti-CD3 and anti-CD28 mAb for 18 h, pre-incubated with or without recombinant Gal1 (25 ug/ml) for 15 min; 500 ug cell lysate with 2 ug anti-FasL (sc-956) or isotype control antibody, Protein G PLUS-Agarose, immunoblotting; only the binder purified.

Consider “recombinant galectin-1 (from UniProt P09382 1-135)”, for which the binding result is listed as “binds”.
